# Reference: paper PMC7819943, “Rice protein-binding microarrays: a tool to detect cis-acting elements near promoter regions in rice”
# This is one part of the list.
# Biological target: T1, OsSMF1 (Oryza sativa, UniProt Q6ZLB0 1-436)
# T1 sequence: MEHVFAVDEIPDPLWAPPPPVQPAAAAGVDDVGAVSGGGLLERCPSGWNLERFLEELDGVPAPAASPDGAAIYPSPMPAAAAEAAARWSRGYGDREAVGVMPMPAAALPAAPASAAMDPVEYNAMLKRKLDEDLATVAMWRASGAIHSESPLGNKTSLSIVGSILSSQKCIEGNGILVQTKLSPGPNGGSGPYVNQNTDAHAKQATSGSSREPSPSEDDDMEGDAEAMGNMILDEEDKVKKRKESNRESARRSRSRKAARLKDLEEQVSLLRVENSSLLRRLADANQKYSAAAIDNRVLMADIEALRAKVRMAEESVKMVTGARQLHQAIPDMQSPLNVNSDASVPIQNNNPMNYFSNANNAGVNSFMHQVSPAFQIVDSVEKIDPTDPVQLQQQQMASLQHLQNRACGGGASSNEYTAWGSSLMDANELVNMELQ
# Test: protein-binding microarray (RPBM); PBS, 2% BSA, 51.3 ng/ul salmon testes DNA, 50 uM zinc acetate, 200 nM TF, 25 C, 1 h; high values mean tight binding
# Details: protein: recombinant; tags: N-terminal polyhistidine and DsRed monomer fusion (pET32a); chain copies: 2; label: CyDye5-dUTP incorporated in the synthesized complementary strand; 3' TTTTT single-stranded linker to array surface; dsDNA, one strand shown
# Procedure, shortened: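 The binding signal for each feature is its fluorescence intensity in arbitrary units. An Axon 4000B scanner was used to read a custom Agilent array that had been made double-stranded with Cy5-dUTP primer extension, blocked with 2% BSA, incubated at 25 °C for 1 h with 200 nM protein in PBS, 2% BSA, salmon testes DNA and 50 µM zinc acetate, and washed. The protein was an N-terminal polyhistidine–DsRed transcription factor fusion from E. coli BL21-CodonPlus, purified on Ni–NTA.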
row,Sequence,binding signal
1,GCCTTCCCTTCCTTCCTCTGCCAATGGCCGCGCGTCAGCCCGGAGTCACCTAGTGCAG,3390 fluorescence intensity (a.u.)
2,ACCCTCTTCTTCGCCCGCCGCCTGCGTGTCGCGCCGATCTCGGAGTCACCTAGTGCAG,4690 fluorescence intensity (a.u.)
3,CCATCTTCATCTCCATATCTTCTCCTCCTCGCGTCGGCAGCGGAGTCACCTAGTGCAG,3270 fluorescence intensity (a.u.)
4,TAGTTGATGAATACTCCCTCCGTTTCATAATGTAAGTCATCGGAGTCACCTAGTGCAG,3260 fluorescence intensity (a.u.)
5,AGCTTTAGTTGTCGCCGACCAGATTGACCACCAGTTCCAACGGAGTCACCTAGTGCAG,3150 fluorescence intensity (a.u.)
6,GTTCCCTCCACTACTAATTACACGTAGGCAGTACGATCACCGGAGTCACCTAGTGCAG,20800 fluorescence intensity (a.u.)
7,AATTACATGCAAGTTACAGTGTAATTACACTACGATTGTACGGAGTCACCTAGTGCAG,3280 fluorescence intensity (a.u.)
8,CAGAAACTGGTTGCCATCTTGGATGCCTGCGTGTGAATTGCGGAGTCACCTAGTGCAG,3800 fluorescence intensity (a.u.)
9,TACGAACCCAATCCTAGTCACCACGATCCACTCCAAAGCGCGGAGTCACCTAGTGCAG,4120 fluorescence intensity (a.u.)
10,GATGGGTGGGGATGAGGCCGGGCGGCCAATCCAACTTGAGCGGAGTCACCTAGTGCAG,3940 fluorescence intensity (a.u.)
11,ATATAGATCATCATCAAGACTACGTATTATTCACTATTCACGGAGTCACCTAGTGCAG,3160 fluorescence intensity (a.u.)
12,CGCGCGCGTCGGCGTTCCACCCGGACGTGTCCCGCGCGGTCGGAGTCACCTAGTGCAG,4200 fluorescence intensity (a.u.)
13,ATGCCATGTGTATGACATGTGGCTTTGGTGATGATTTCCCCGGAGTCACCTAGTGCAG,4870 fluorescence intensity (a.u.)
14,AATAGGTGTGAAATCAAAATCCCCTTCTAATCTTCTTGTGCGGAGTCACCTAGTGCAG,14600 fluorescence intensity (a.u.)
15,CGTGGTCTTGCCTATGTGGCATGCCACGTGGACGATGACACGGAGTCACCTAGTGCAG,25600 fluorescence intensity (a.u.)
16,AGAAGAAGAGGAAGCTGTGGGTCAGGTGGGTTTCCGCCCACGGAGTCACCTAGTGCAG,41300 fluorescence intensity (a.u.)
17,TGCAATGTACTTTGCATGCGTCACACGCCCTTGTCAAGAACGGAGTCACCTAGTGCAG,6550 fluorescence intensity (a.u.)
18,CATTTGCCTTAGTCCTTGCGCGTGCTTCATTGATTTCTGCCGGAGTCACCTAGTGCAG,3480 fluorescence intensity (a.u.)
19,CTTTCCAACGTTGGTGAATCATGATCGGTCAATTTGCAACCGGAGTCACCTAGTGCAG,4610 fluorescence intensity (a.u.)
20,GAGTAGAGGTGGGAGGAAGCGGTGGTGTGGTGGGGTGGGGCGGAGTCACCTAGTGCAG,8310 fluorescence intensity (a.u.)
21,CCAGATCGACCCCGACGTGGCTGTGTGTCATCCTATCCCACGGAGTCACCTAGTGCAG,7670 fluorescence intensity (a.u.)
22,TCGGTAGAGGTGGAGTAGAGTCTGACATATCCGGTATATACGGAGTCACCTAGTGCAG,3680 fluorescence intensity (a.u.)
23,GGCGTGCCGTTACTGGGTCCAACCGTCCAAGCACACACTACGGAGTCACCTAGTGCAG,3490 fluorescence intensity (a.u.)
24,TTCCTATTTAACTCCACATATTTCCTTAATACACGTGTCTCGGAGTCACCTAGTGCAG,8090 fluorescence intensity (a.u.)
25,GATCGAAGCCACGCAACGGCACACCAACCCCGACACAGCACGGAGTCACCTAGTGCAG,3340 fluorescence intensity (a.u.)
26,GATAGGAGGGGATAACTTGTTTCATATTTTGTGCCGGGTTCGGAGTCACCTAGTGCAG,3710 fluorescence intensity (a.u.)
27,CACATTTAAGGTACGTGATGCATAGGACACAGGGTAAAGTCGGAGTCACCTAGTGCAG,3280 fluorescence intensity (a.u.)

row,Sequence,binding signal
1,CGAAGAGGGTGGCACGGGTACGACGGTGCTCGCCGGCGGCCGGAGTCACCTAGTGCAG,35200 fluorescence intensity (a.u.)
2,CATAGCCTTTTGCATATGCGTCAAGCGTCTATACGATTCGCGGAGTCACCTAGTGCAG,3900 fluorescence intensity (a.u.)
3,CTCGTTTACGAGGGACGGCTGCAGGGTACTGACCGCGCGTCGGAGTCACCTAGTGCAG,3270 fluorescence intensity (a.u.)
4,TCTAGAACCTTCCGGAGATCTCTGGAACCGCGTCTCCAACCGGAGTCACCTAGTGCAG,3710 fluorescence intensity (a.u.)
5,TTTAGAAATATTATTACATGTCACAGTCCCGGTAACAACACGGAGTCACCTAGTGCAG,3160 fluorescence intensity (a.u.)
6,GTTAATTACCCCGGTGTCACTTTCAGTCACCATCACCACTCGGAGTCACCTAGTGCAG,4920 fluorescence intensity (a.u.)
7,CCTGCAGCCAGAGCTGCATTTGCTGGGGATTTATACTAGTCGGAGTCACCTAGTGCAG,3540 fluorescence intensity (a.u.)
8,GAATCTCGTACCTGCTCCAGTAGTCGTGTCAATTTGGAAACGGAGTCACCTAGTGCAG,3900 fluorescence intensity (a.u.)
9,AATGGCGTCACGGAAGGAAGACGAATCGATACCGCTGACTCGGAGTCACCTAGTGCAG,3840 fluorescence intensity (a.u.)
10,ATGCTGTCGTACTTCCTATTTGTGACTAATCAGTTGTTTGCGGAGTCACCTAGTGCAG,4520 fluorescence intensity (a.u.)
11,TTTCCTTGGAGAATCCAGATCAGCTTCCTAATCACCCTCACGGAGTCACCTAGTGCAG,4040 fluorescence intensity (a.u.)
12,TGCAAGGTTGCCACCAATTGACGAACAAGTTATTAGCATGCGGAGTCACCTAGTGCAG,3430 fluorescence intensity (a.u.)
13,ATTCTTTGCTTCTTGGTGCTTCCATGTCACCCTACTTTATCGGAGTCACCTAGTGCAG,5200 fluorescence intensity (a.u.)
14,GGACGTCTTTAGACTCTAGGTCTACGTCTATGATGTGGATCGGAGTCACCTAGTGCAG,4450 fluorescence intensity (a.u.)
15,CTGCGACTGTCGCGGCCATGGCGTCCACCATTCATCATCACGGAGTCACCTAGTGCAG,3530 fluorescence intensity (a.u.)
16,CATCCGGTGACTCGGCGCAGCCATTATCCGCCGCCGCCGCCGGAGTCACCTAGTGCAG,5420 fluorescence intensity (a.u.)
17,TAAACTTTGGGTCTATATACTACTACCTCCGTCCCATAAACGGAGTCACCTAGTGCAG,37500 fluorescence intensity (a.u.)
18,CGTGCCCGTCCCGTCCTCCTCTCCTCTCCTCACCGTCACTCGGAGTCACCTAGTGCAG,4600 fluorescence intensity (a.u.)
19,TGAATATGCAAGTTAAGGGACATGTTATATATGGTATTGTCGGAGTCACCTAGTGCAG,3240 fluorescence intensity (a.u.)
20,TCCCAATTCCGCCGCCAATTTCCGGTGCCGACGAGGAGTCCGGAGTCACCTAGTGCAG,11200 fluorescence intensity (a.u.)
21,CATACCCTCAGCCACCATTCCACGTCTAACTATATAATATCGGAGTCACCTAGTGCAG,4100 fluorescence intensity (a.u.)
22,GGAAGGAGACTGCTTGGTCACTAATTTAATCTGCTACTACCGGAGTCACCTAGTGCAG,3140 fluorescence intensity (a.u.)
23,ATTCCCACCCGTGGCTCGTCGCCGCCTCCGCCTCCGCTCCCGGAGTCACCTAGTGCAG,3560 fluorescence intensity (a.u.)
24,GCCGCCGCGGCGGGAGGGTCTCCGGCGAGGTCAAGGCCCCCGGAGTCACCTAGTGCAG,30800 fluorescence intensity (a.u.)
25,TCTGGCAGTTCCCTTCGGTCAGTTCGGACTTCCGACGTAGCGGAGTCACCTAGTGCAG,3170 fluorescence intensity (a.u.)
26,GGCGGCAGACGGCGCGGTCGACCCGCCGTCTGCCACGTCACGGAGTCACCTAGTGCAG,25500 fluorescence intensity (a.u.)
27,ATTAACTTGTCCTCGCTCACCAAGGTGCCCACGTCGCTGCCGGAGTCACCTAGTGCAG,3520 fluorescence intensity (a.u.)

# Copied from above for reference:
row,Sequence,binding signal
9,AATGGCGTCACGGAAGGAAGACGAATCGATACCGCTGACTCGGAGTCACCTAGTGCAG,3840 fluorescence intensity (a.u.)
10,ATGCTGTCGTACTTCCTATTTGTGACTAATCAGTTGTTTGCGGAGTCACCTAGTGCAG,4520 fluorescence intensity (a.u.)
11,TTTCCTTGGAGAATCCAGATCAGCTTCCTAATCACCCTCACGGAGTCACCTAGTGCAG,4040 fluorescence intensity (a.u.)
